Results are given in words; binding and its absence hold for the method and conditions named. In cells and extracts the contact can be indirect. Some binding calls cover weakened binding; strength is not graded here. Sequences can lack the tags named with a protein.
Biological target: T1, NDK-1::GFP (C. elegans) (UniProt Q93576)
T1 sequence: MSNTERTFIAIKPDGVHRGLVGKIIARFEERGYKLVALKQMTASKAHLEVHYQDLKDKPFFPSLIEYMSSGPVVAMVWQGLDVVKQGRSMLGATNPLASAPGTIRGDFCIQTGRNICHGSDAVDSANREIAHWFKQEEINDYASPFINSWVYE
Test: co-IP; mixed-stage worm extracts (TTV3, N2) in 25 mM HEPES NaOH pH 7.4, 150 mM NaCl, 1 mM DTT, 0.5% Triton X-100, 1 mM EDTA; NDK-1::GFP captured with monoclonal anti-GFP (3E6); blot with polyclonal anti-DYN-1; controls: anti-tubulin mouse IgG, N2 extract

binding: binds
B1: DYN-1/Dynamin (C. elegans) (protein, UniProt P39055 1-830)
chain: MSWQNQGMQALIPVINRVQDAFSQLGTSVSFELPQIAVVGGQSAGKSSVLENFVGKDFLPRGSGIVTRRPLILQLIQDRNEYAEFLHKKGHRFVDFDAVRKEIEDETDRVTGQNKGISPHPINLRVFSPNVLNLTLIDLPGLTKVPVGDQPADIEQQIRDMILTFINRETCLILAVTPANSDLATSDALKLAKEVDPQGLRTIGVLTKLDLMDEGTDAREILENKLFTLRRGYVGVVNRGQKDIVGRKDIRAALDAERKFFISHPSYRHMADRLGTSYLQHTLNQQLTNHIRDTLPTLRDSLQKKMFAMEKDVAEYKNYQPNDPGRKTKALLQMVTQFNADIERSIEGSSAKLVSTNELSGGARINRLFHERFPFEIVKMEIDEKEMRKEIQYAIRNIHGIRVGLFTPDMAFEAIAKKQITRLKEPSLKCVDLVVNELANVIRQCADTMARYPRLRDELERIVVSHMREREQIAKQQIGLIVDYELAYMNTNHEDFIGFSNAEAKASQGQSAKKNLGNQVIRKGWLSLSNVSFVRGSKDNWFVLMSDSLSWYKDDEEKEKKYMLPLDGVKLKDIEGGFMSRNHKFALFYPDGKNIYKDYKQLELGCTNLDEIDAWKASFLRAGVYPEKQKAQEDESQQEMEDTSIDPQLERQVETIRNLVDSYMRIITKTIKDLVPKAVMHLIVNQTGEFMKDELLAHLYQCGDTDALMEESQIEAQKREEMLRMYHACKEALRIISEVNMSTLGDQPPPLPMSDYRPHPSGPSPVPRPAPAPPGGRQAPMPPRGGPGAPPPPGMRPPPGAPGGGGGMYPPLIPTRPGPGGPPPNMAPPR
